{"source": "the supplement of paper PMC5949888", "note": "± gives the standard deviation of the averaged measurements. Most values lie at the floor of the assay. Slopes are relative: functional sequences can read slightly below zero.", "data": [{"test_system": "Saccharomyces cerevisiae PS128 hsf1 delta, HSF1(1-493) fusion", "test": "growth estimate (transactivation domain function in HSF1 fusion, heat-shock survival) (a.u. (slope of normalised read count over time)); higher = stronger growth at 37°C, i.e. more transactivation activity", "settings": "library: random library", "values": [{"substance": "REGIRDNTNAMMMWTLW", "growth estimate": 0.111}, {"substance": "REGRASRRYAQLNY", "growth estimate": "< -0.25"}, {"substance": "REGSSANGHSCQLGQMLGGC", "growth estimate": "< -0.25"}, {"substance": "REHQHKLDTGEQLSRGEGLR", "growth estimate": "< -0.25"}, {"substance": "REKLRR", "growth estimate": "< -0.25"}, {"substance": "REKQSFPFRS", "growth estimate": "< -0.25"}, {"substance": "RELLRSVRKSRHFKSVFEPS", "growth estimate": "< -0.25"}, {"substance": "RELRFPTGYRERRHRSL", "growth estimate": "< -0.25"}, {"substance": "RELRKRSKLLWTGDQ", "growth estimate": "< -0.25"}, {"substance": "RELSHYDAPALRSAG", "growth estimate": "< -0.25"}, {"substance": "REPRAANLEHSRSPTRARRS", "growth estimate": "< -0.25"}, {"substance": "REPTSPDFISGGPSKRVLDL", "growth estimate": "< -0.25"}, {"substance": "REPV", "growth estimate": "< -0.25"}, {"substance": "REQDPATCGGTPS", "growth estimate": "< -0.25"}, {"substance": "REQEWRHRARTREVRKRAAA", "growth estimate": "< -0.25"}, {"substance": "REQG", "growth estimate": "< -0.25"}, {"substance": "RERCPTQV", "growth estimate": "< -0.25"}, {"substance": "RERFVF", "growth estimate": "< -0.25"}, {"substance": "RERGTSFASLLPSAVPLA", "growth estimate": -0.205}, {"substance": "RERLEWLDTR", "growth estimate": "< -0.25"}, {"substance": "RERPCRAYA", "growth estimate": "< -0.25"}, {"substance": "RERRAGVRVIIFN", "growth estimate": "< -0.25"}, {"substance": "RERSF", "growth estimate": "< -0.25"}, {"substance": "RESCQKDWHLRVRENLAFAV", "growth estimate": "< -0.25"}, {"substance": "RESDSRGQDLLC", "growth estimate": "< -0.25"}, {"substance": "RESERQHQDAGH", "growth estimate": "< -0.25"}, {"substance": "RESHSYL", "growth estimate": "< -0.25"}, {"substance": "RESVLFD", "growth estimate": "< -0.25"}, {"substance": "RETDRT", "growth estimate": "< -0.25"}, {"substance": "RETGDSSVRGVRTVSCKPTG", "growth estimate": "< -0.25"}, {"substance": "REVHSV", "growth estimate": -0.203}, {"substance": "REVSNSLRNSKSRARASPLV", "growth estimate": -0.133}, {"substance": "REVWSATGSIARMPVVHIPP", "growth estimate": "< -0.25"}, {"substance": "REWGWSRLTLRATKKGTLSG", "growth estimate": "< -0.25"}, {"substance": "REWVTPRSY", "growth estimate": "< -0.25"}, {"substance": "RFAAVGESCAYSGGYRT", "growth estimate": "< -0.25"}, {"substance": "RFCAF", "growth estimate": "< -0.25"}, {"substance": "RFDVEGTYHGCSGSVERSIW", "growth estimate": "< -0.25"}, {"substance": "RFEGVRFSG", "growth estimate": "< -0.25"}, {"substance": "RFFDQRVRGGRLINATTRGG", "growth estimate": "< -0.25"}, {"substance": "RFG", "growth estimate": "< -0.25"}, {"substance": "RFGMTLSGCLFLN", "growth estimate": "< -0.25"}, {"substance": "RFHSCLAATRSWWRGAAPLW", "growth estimate": "< -0.25"}, {"substance": "RFMGFIRLPRKRPSLCVVRL", "growth estimate": "< -0.25"}, {"substance": "RFMPGANCSVRTRTIEGADQ", "growth estimate": "< -0.25"}, {"substance": "RFMSAVRLSNFRIQIGVYIL", "growth estimate": "< -0.25"}, {"substance": "RFNVMPTQGGGY", "growth estimate": "< -0.25"}, {"substance": "RFPHLGR", "growth estimate": "< -0.25"}, {"substance": "RFPSIVFGGRVDVVITLDVE", "growth estimate": "< -0.25"}, {"substance": "RFRAVRANASGEPWQGRT", "growth estimate": "< -0.25"}, {"substance": "RFRLIYKRPKLRQYLGRPSM", "growth estimate": "< -0.25"}, {"substance": "RFRSLVVSSPHAEVRKLCRS", "growth estimate": "< -0.25"}, {"substance": "RFS", "growth estimate": "-0.00225 ± 0.35"}, {"substance": "RFSGLWCSPR", "growth estimate": "< -0.25"}, {"substance": "RFSYFEKCVPGPVRVQETEA", "growth estimate": "< -0.25"}, {"substance": "RFTCCTLP", "growth estimate": -0.165}, {"substance": "RFTYDRARNKSALQVGFLLS", "growth estimate": "< -0.25"}, {"substance": "RFVFA", "growth estimate": "< -0.25"}, {"substance": "RFVRGNRLRLG", "growth estimate": "< -0.25"}, {"substance": "RFVTRSM", "growth estimate": "< -0.25"}, {"substance": "RFVVLPVKDVNLPYAKPRRR", "growth estimate": "< -0.25"}, {"substance": "RFWWYYRSIHGTRLRSGSKQ", "growth estimate": "< -0.25"}, {"substance": "RGAPTLNQVSGR", "growth estimate": "< -0.25"}, {"substance": "RGCMRRRIKKSLNLPLLAGM", "growth estimate": "< -0.25"}, {"substance": "RGCPVTPVT", "growth estimate": -0.118}, {"substance": "RGDDEVE", "growth estimate": "< -0.25"}, {"substance": "RGDGHGV", "growth estimate": "< -0.25"}, {"substance": "RGDKTLYDCPQPLSLWSQYT", "growth estimate": "< -0.25"}, {"substance": "RGDVRREIDHLS", "growth estimate": "< -0.25"}, {"substance": "RGDWRKEILLARRQQTGGDS", "growth estimate": "< -0.25"}, {"substance": "RGEH", "growth estimate": "< -0.25"}, {"substance": "RGEITGEKASKGTVTFGHTV", "growth estimate": "< -0.25"}, {"substance": "RGEKTTTTTGNQSREG", "growth estimate": "< -0.25"}, {"substance": "RGEPYTGIPQSFGRAAWSFA", "growth estimate": "< -0.25"}, {"substance": "RGESHSRVSRSLPTRIGGQG", "growth estimate": "< -0.25"}, {"substance": "RGEV", "growth estimate": "< -0.25"}, {"substance": "RGFGSRGTRL", "growth estimate": "< -0.25"}, {"substance": "RGFIAPT", "growth estimate": "< -0.25"}, {"substance": "RGFSGSCITAHLHGLYVLNA", "growth estimate": "< -0.25"}, {"substance": "RGG", "growth estimate": "< -0.25"}, {"substance": "RGGAR", "growth estimate": "< -0.25"}, {"substance": "RGGFGKKDGAPLGVQVSSAS", "growth estimate": "< -0.25"}, {"substance": "RGGGGSRYQ", "growth estimate": "< -0.25"}, {"substance": "RGGINITRRCSKILKVSRAL", "growth estimate": "< -0.25"}, {"substance": "RGGLSIV", "growth estimate": "< -0.25"}, {"substance": "RGGLTHAG", "growth estimate": "< -0.25"}, {"substance": "RGGPSSRTIYMLKFGPWAVK", "growth estimate": "< -0.25"}, {"substance": "RGGRIS", "growth estimate": "< -0.25"}, {"substance": "RGHSLLYLV", "growth estimate": "< -0.25"}, {"substance": "RGHTGV", "growth estimate": "< -0.25"}, {"substance": "RGIKITFHVVSFRHPG", "growth estimate": "< -0.25"}, {"substance": "RGIVEFGLVDAPGQSCGIGE", "growth estimate": "< -0.25"}, {"substance": "RGKGLGPGRGTGAYMVNYWP", "growth estimate": "< -0.25"}, {"substance": "RGKHSAWWRRRQTP", "growth estimate": "< -0.25"}, {"substance": "RGKMTTSLTLVAGVAGSCGR", "growth estimate": "< -0.25"}, {"substance": "RGL", "growth estimate": "< -0.25"}, {"substance": "RGLGHMIHSKSALGAPGSVR", "growth estimate": "< -0.25"}, {"substance": "RGLKSVGSLATLRSIAPWTA", "growth estimate": "< -0.25"}, {"substance": "RGLNPCSVVTLPLNQGPSTA", "growth estimate": "< -0.25"}, {"substance": "RGLNSQIALLALRVPFLSVV", "growth estimate": "< -0.25"}]}]}
